Taken from: PubChem BioAssay AID504774 (Drosophila RNAi Screening Center, 2011)
In all, the deposit lists about 23,000 reagents; below is a random part of those that have a named target and a result. 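Values are quantile-normalised luminescence on an arbitrary scale; higher means more cells surviving MMS.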 The numbers tell different reagents against one gene apart. A plus sign joins genes that one reagent is predicted to hit. Further read-outs or replicates are left out here.

Aim: 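Fly genes whose loss alters survival after alkylation damage to DNA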 (primary screen)
Cell system: Drosophila Kc167 cells
Knock-down reagent: long dsRNA against Drosophila genes, about 0.25 µg dsRNA per well
Duration: about 6 days: 3 days knock-down, then 3 days with or without MMS
Conditions: methyl methanesulphonate 0.004% (w/v) for 3 days after knock-down
Read-out: 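Viability in wells given MMS, read as ATP luminescence, normalised by quantiles plate by plate and averaged across replicates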
Reading the numbers: mean viability with MMS: higher = more surviving cells after MMS

mean viability with MMS, by gene knocked down and reagent
CG2070: #1 3.38e6
CG12081: #1 3.50e6
Rpt6R (Regulatory particle triple-A ATPase 6-related): #1 3.69e6
Syx1A (Syntaxin 1A): #1 3.49e6; #2 3.38e6
GstD11 (Glutathione S transferase D11): #1 3.42e6
Pepck2 (Phosphoenolpyruvate carboxykinase 2): #1 3.56e6
nullo: #1 3.50e6
CG30016: #1 3.54e6
Axud1 (AXIN1 up-regulated 1): #1 3.46e6
CG6293: #1 3.72e6
CG8112: #1 3.78e6
Vajk2: #1 3.62e6
CG10098: #1 3.53e6
Hsl (Hormone-sensitive lipase): #1 3.57e6
Targ (Tarag): #1 3.64e6
CG14230: #1 3.43e6
vnd (ventral nervous system defective): #1 3.53e6; #2 3.64e6; #3 3.68e6
CG32301: #1 3.55e6
rump (rumpelstiltskin): #1 3.43e6
Sec15 (Secretory 15): #1 3.65e6
ClpP (Caseinolytic protease proteolytic subunit): #1 3.42e6
Ppcs (Phosphopantothenoylcysteine synthetase): #1 3.53e6
CG17258: #1 3.51e6; #2 3.60e6
CG14711 + Zaf1: #1 3.54e6
